# Where a name gives a salt, the structure may show the parent alone. The list shows a part of the results. The calls rarely recur for the same compound in another form.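 Kinases were expressed as nanoluciferase fusions in K562 cells and luminescence was read every 4 h between 2 and 18 h as percent of control, DMSO set to 100% and a positive control to 0%. A time point counts as decreased when the signal drops significantly (2 sigma). The hit call is the authors' own, does not follow from the count of time points alone, and its rule is not shown.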
# Chains of the proteins cited; added tags and fusions are not shown. Lines headed by an entry give the natural chain unless they say otherwise; changes in a name come on top.
# UniProt Q9Y6E0: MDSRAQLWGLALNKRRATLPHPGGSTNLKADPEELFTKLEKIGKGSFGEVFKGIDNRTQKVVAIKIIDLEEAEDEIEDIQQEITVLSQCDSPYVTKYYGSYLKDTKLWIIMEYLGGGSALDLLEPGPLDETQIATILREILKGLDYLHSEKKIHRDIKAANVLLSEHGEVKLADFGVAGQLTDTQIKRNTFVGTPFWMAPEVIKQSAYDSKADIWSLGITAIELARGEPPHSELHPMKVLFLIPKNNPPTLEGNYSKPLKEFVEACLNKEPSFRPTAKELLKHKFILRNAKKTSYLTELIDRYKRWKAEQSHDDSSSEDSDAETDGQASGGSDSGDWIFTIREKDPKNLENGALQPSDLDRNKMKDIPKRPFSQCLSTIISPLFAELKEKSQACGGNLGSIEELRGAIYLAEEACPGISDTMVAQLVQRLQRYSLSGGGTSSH
# Molecular target: STK24 (UniProt Q9Y6E0)
# Experiment: number of time points (of 5) at which kinase-Nluc abundance scored as decreased, DMSO-normalised (count); higher = more persistent destabilization
# Details: K562; 2-18 h
row,Compound,number of time points
1,CC(C)n1ncnc1-c1cn2c(n1)-c1ccc(O[C@@H](C)C(N)=O)cc1OCC2 (10 µM),0
2,O=C(c1cccc(Cl)c1F)N1CCN(Cc2cccc(Nc3nccs3)n2)CC1 (2.5 µM),0
3,COc1cc(F)ccc1-c1ncnc(Nc2cccc(C[S@](C)(=N)=O)c2)n1 [Atuveciclib] (2.5 µM),0
4,Cc1cnc(NC(=O)c2cc(Oc3cnc(C(=O)N(C)C)nc3)c3cc(C)oc3c2)cn1 (10 µM),0
5,CC1=C(C(=O)Nc2cc3cn[nH]c3cc2F)C(c2ccc(C(F)(F)F)cc2)CC(=O)N1 (stereo not drawn) (10 µM),0
6,NCC1CCC(CNc2nc(NCc3ccccc3OC(F)(F)F)ncc2[N+](=O)[O-])CC1 (stereo not drawn) [PKC-theta inhibitor] (10 µM),0
7,O=C1Nc2ccc(I)cc2/C1=C/c1cc(Br)c(O)c(Br)c1 (10 µM),0
8,COc1cc(-c2oc3cc(O)cc(O)c3c(=O)c2O)ccc1O [Isorhamnetin] (10 µM),0
9,O=C1OC(/C=C/c2ccccc2)=NC/1=C\c1cccnc1 (10 µM),0
10,Cn1ncc(NC(=O)c2nc(-c3c(F)cccc3F)sc2N)c1N1CC[C@@H](N)[C@H](F)CC1 (10 µM),0
11,CNC(=O)CNc1cnc2ccc(-c3ccc(OC)c(OC)c3)cc2n1 (10 µM),0
12,CO[C@H]1C[C@@H]2CC[C@@H](C)[C@@](O)(O2)C(=O)C(=O)N2CCCC[C@H]2C(=O)O[C@H]([C@H](C)C[C@@H]2CC[C@@H](OCCO)[C@H](OC)C2)CC(=O)[C@H](C)/C=C(\C)[C@@H](O)[C@@H](OC)C(=O)[C@H](C)C[C@H](C)/C=C/C=C/C=C/1C [Everolimus] (10 µM),0
13,O=C(Nc1cccnc1)c1cc(-c2ccnc(F)c2)ccc1OCc1ccccc1 (10 µM),0
14,COc1c(O)cc2oc(-c3ccc(O)cc3)cc(=O)c2c1O [Hispidulin] (10 µM),0
15,O=C1CC[C@H](NC(=O)Cc2ccccc2)C(=O)N1 [Antineoplaston A10] (10 µM),0
16,CC(C)Oc1ccc(F)c(-c2cnc(N)c(C(=O)Nc3cnccc3N3CCC[C@@H](C(=O)O)C3)n2)c1 (2 µM),0
17,Nc1nc2c(nc(Br)n2[C@@H]2O[C@@H]3COP(=O)(O)O[C@H]3[C@H]2O)c(=O)[nH]1 [8-Bromo-cGMP (sodium)] (10 µM),0
18,Cc1cc(-n2c(=O)ccc3c[nH]c4nccc-4c32)ccc1F (10 µM),0
19,CO[C@H]1CC[C@H](N2C(=O)CNc3ncc(-c4ccc(C(C)(C)O)nc4)nc32)CC1 (2.5 µM),0

# Three compounds out of the list, arranged by heavy-atom count, ascending:
row,Compound,number of time points
15,O=C1CC[C@H](NC(=O)Cc2ccccc2)C(=O)N1 [Antineoplaston A10] (10 µM),0
14,COc1c(O)cc2oc(-c3ccc(O)cc3)cc(=O)c2c1O [Hispidulin] (10 µM),0
17,Nc1nc2c(nc(Br)n2[C@@H]2O[C@@H]3COP(=O)(O)O[C@H]3[C@H]2O)c(=O)[nH]1 [8-Bromo-cGMP (sodium)] (10 µM),0

# Following part

row,Compound,number of time points
1,COc1cc2c(cc1OC)/C(=C/c1ccc(O)cc1)C(=O)N2 (10 µM),0
2,NCCOc1ccc(Cl)cc1C(=O)Nc1ccc([N+](=O)[O-])cc1Cl [HJC0152 hydrochloride] (2 µM),0
3,CCN(CC)CCOc1ccc(Nc2nc(-c3ccccc3NC(=O)CCN3CCN(C)CC3)nc3ccccc23)cc1 (2.5 µM),0
4,C=CC(=O)N1CCN(C(=O)CNc2cc(I)c(Cl)cc2O)CC1 [K-Ras(G12C) inhibitor 12] (10 µM),0
5,N[C@@H]1CCCN(c2c(/C=C3\SC(=O)NC3=O)cccc2-c2ccccc2)C1 (10 µM),0
6,O=C(Nc1cc(Cl)cc2c1[nH]c1cnccc12)c1cccnc1 (10 µM),0
7,C=C1C(=O)[C@@]23[C@H](O)C[C@@H]4C(C)(C)C(=O)CC[C@@]4(C)[C@@H]2CC[C@@H]1[C@H]3O [Glaucocalyxin A] (2.5 µM),0
8,C[C@@H]1O[C@@H](Oc2cc(O)c3c(=O)c(O[C@@H]4O[C@@H](C)[C@H](O)[C@@H](O)[C@H]4O)c(-c4ccc(O)cc4)oc3c2)[C@H](O)[C@H](O)[C@H]1O [Kaempferitrin] (10 µM),0
9,Cc1c(C(=O)Nc2ccc(Oc3ccnc4[nH]cc(-c5ccccc5)c34)c(F)c2)c(=O)n(-c2ccc(F)cc2)n1C (10 µM),0
10,c1nc2c(NC3CCCCC3)nc(Nc3ccc(N4CCOCC4)cc3)nc2[nH]1 [Reversine] (10 µM),0
11,CN1CCN(c2ccc(Nc3ncc4cc(C#N)c(=O)n(C5CCCC5)c4n3)cc2)CC1 (10 µM),0
12,NC[C@@](O)(c1ccc(Cl)cc1)c1ccc(-c2cn[nH]c2)cc1 (10 µM),0
13,Cc1ccc(-n2nc(C(C)(C)C)cc2NC(=O)Nc2ccc(OCCN3CCOCC3)cc2)cc1 (10 µM),0
14,c1ccc(Cn2c(-c3ccc(OC[C@H](C4CCNCC4)n4c(-c5ccccc5)nc5ccccc54)cc3)nc3ccccc32)cc1 [Deltarasin] (2.5 µM),0
15,C=CC(=O)N1CC[C@@H](Oc2nc(Nc3ccc(N4CCC(N5CCN(C)CC5)CC4)cc3)c(C(N)=O)nc2CC)C1 [Naquotinib (mesylate)] (2.5 µM),0
16,Cc1cc(O)c2c(c1)C(=O)c1cccc(O)c1C2=O [Chrysophanol] (2 µM),0
17,Cc1cc(C(=O)NC(C)(C)C)cc(C#Cc2ccc3c4c(oc3c2)C(C)(C)c2cc(NS(C)(=O)=O)ccc2C4=O)n1 (10 µM),0
18,Nc1nc(NCCNc2ncc(-n3ccnc3)c(-c3ccc(Cl)cc3Cl)n2)ccc1[N+](=O)[O-] (2.5 µM),0
19,Cn1c(CNc2cccc(C(=O)NCc3ccccc3C(F)(F)F)c2)nnc1-c1ccncc1 (10 µM),0

# — the supplement of paper PMC12823440, “Inhibitors supercharge kinase turnover through native proteolytic circuits” (Nature, 2025)
